Results deposited as PubChem BioAssay AID1053209 (Peter MacCallum Cancer Centre, 2014).
Here is a random part of about 1,580 deposited reagents. 207 of all reagents (13%) were called active. 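Rows are single siRNAs; four siRNAs per gene were tested, a gene counting as confirmed only when at least two agree.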 Unmarked entries are inactive. The numbers tell different reagents against one gene apart. Not all columns of the deposit are shown.

Purpose: 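Knock-downs that sensitise mouse osteosarcoma cells to doxorubicin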 (follow-up of hits)
Cells: mouse primary osteosarcoma cells
Knock-down reagent: single siRNA against mouse genes, 25 nM (text also states 40 nM)
Duration: about 120 h (48 h before drug, then 72 h with drug)
Conditions: doxorubicin 100 nM (about IC30-40), added 48 h after transfection, for 72 h
Detection: 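Viability measured by ATP luminescence with and without doxorubicin, each replicate scaled to non-targeting siRNA NT1, averaged over two replicates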
Scale: viability with doxorubicin, vs NT1: higher = more viable cells under doxorubicin; viability without drug, vs NT1: higher = more viable cells without drug
Active means: 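Active when doxorubicin viability is at most 0.7 of NT1 and drug-free viability lies between 0.7 and 1.1, class LC dox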

Depletion of Rpl27 (ribosomal protein L27) #1 resulted in: combined effect class low viability only with doxorubicin; normal without drug (active); viability with doxorubicin, vs NT1 = 0.63; viability without drug, vs NT1 = 0.83.
Rpl27 (ribosomal protein L27) #2 scored combined effect class normal viability with and without drug; viability with doxorubicin, vs NT1 = 0.72; viability without drug, vs NT1 = 0.8.
With knock-down of Rpl27 (ribosomal protein L27) #3, the screen gave combined effect class low viability only with doxorubicin; normal without drug (active); viability with doxorubicin, vs NT1 = 0.55; viability without drug, vs NT1 = 0.81.
Rpl27 (ribosomal protein L27) #4 showed combined effect class low viability only with doxorubicin; normal without drug (active); viability with doxorubicin, vs NT1 = 0.67; viability without drug, vs NT1 = 0.72.
Lrfn1 #1 scored combined effect class normal viability with and without drug; viability with doxorubicin, vs NT1 = 1.06; viability without drug, vs NT1 = 0.99.
Lrfn1 #2 scored combined effect class normal viability with and without drug; viability with doxorubicin, vs NT1 = 1; viability without drug, vs NT1 = 0.96.
Lrfn1 #3 showed combined effect class normal viability with and without drug; viability with doxorubicin, vs NT1 = 0.8; viability without drug, vs NT1 = 1.
After knock-down of Lrfn1 #4, the screen gave combined effect class normal viability with and without drug; viability with doxorubicin, vs NT1 = 0.96; viability without drug, vs NT1 = 1.03.
Against Prkag3 (protein kinase, AMP-activated, gamma 3 non-catalytic subunit) #1, the values are combined effect class normal viability with and without drug; viability with doxorubicin, vs NT1 = 0.9; viability without drug, vs NT1 = 0.92.
Prkag3 (protein kinase, AMP-activated, gamma 3 non-catalytic subunit) #2 scored combined effect class normal viability with and without drug; viability with doxorubicin, vs NT1 = 0.93; viability without drug, vs NT1 = 1.03.
Depletion of Prkag3 (protein kinase, AMP-activated, gamma 3 non-catalytic subunit) #3 resulted in: combined effect class high viability with and without drug; viability with doxorubicin, vs NT1 = 1.22; viability without drug, vs NT1 = 1.2.
Silencing of Prkag3 (protein kinase, AMP-activated, gamma 3 non-catalytic subunit) #4 came out at: combined effect class normal viability with and without drug; viability with doxorubicin, vs NT1 = 1.02; viability without drug, vs NT1 = 1.
